Results are given in words; binding and its absence hold for the method and conditions named. In cells and extracts the contact can be indirect. A yes stands for co-enrichment or nearness to the bait. Other partners may have been found. Tags and fused reporters may be left off the sequences shown.
B1: Sec61p (protein, UniProt P32915 1-480)
chain: MSSNRVLDLFKPFESFLPEVIAPERKVPYNQKLIWTGVSLLIFLILGQIPLYGIVSSETSDPLYWLRAMLASNRGTLLELGVSPIITSSMIFQFLQGTQLLQIRPESKQDRELFQIAQKVCAIILILGQALVVVMTGNYGAPSDLGLPICLLLIFQLMFASLIVMLLDELLSKGYGLGSGISLFTATNIAEQIFWRAFAPTTVNSGRGKEFEGAVIAFFHLLAVRKDKKRALVEAFYRTNLPNMFQVLMTVAIFLFVLYLQGFRYELPIRSTKVRGQIGIYPIKLFYTSNTPIMLQSALTSNIFLISQILFQKYPTNPLIRLIGVWGIRPGTQGPQMALSGLAYYIQPLMSLSEALLDPIKTIVYITFVLGSCAVFSKTWIEISGTSPRDIAKQFKDQGMVINGKRETSIYRELKKIIPTAAAFGGATIGALSVGSDLLGTLGSGASILMATTTIYGYYEAAAKEGGFTKNLVPGFSDLM
B2: Sec63p (protein, UniProt P14906 1-663)
chain: MPTNYEYDEASETWPSFILTGLLMVVGPMTLLQIYQIFFGANAEDGNSGKSKEFNEEVFKNLNEEYTSDEIKQFRRKFDKNSNKKSKIWSRRNIIIIVGWILVAILLQRINSNDAIKDAATKLFDPYEILGISTSASDRDIKSAYRKLSVKFHPDKLAKGLTPDEKSVMEETYVQITKAYESLTDELVRQNYLKYGHPDGPQSTSHGIALPRFLVDGSASPLLVVCYVALLGLILPYFVSRWWARTQSYTKKGIHNVTASNFVSNLVNYKPSEIVTTDLILHWLSFAHEFKQFFPDLQPTDFEKLLQDHINRRDSGKLNNAKFRIVAKCHSLLHGLLDIACGFRNLDIALGAINTFKCIVQAVPLTPNCQILQLPNVDKEHFITKTGDIHTLGKLFTLEDAKIGEVLGIKDQAKLNETLRVASHIPNLKIIKADFLVPGENQVTPSSTPYISLKVLVRSAKQPLIPTSLIPEENLTEPQDFESQRDPFAMMSKQPLVPYSFAPFFPTKRRGSWCCLVSSQKDGKILQTPIIIEKLSYKNLNDDKDFFDKRIKMDLTKHEKFDINDWEIGTIKIPLGQPAPETVGDFFFRVIVKSTDYFTTDLDITMNMKVRDSPAVEQVEVYSEEDDEYSTDDDETESDDESDASDYTDIDTDTEAEDDESPE
B3: Sec71p (protein, UniProt P33754 1-206)
chain: MSEFNETKFSNNGTFFETEEPIVETKSISVYTPLIYVFILVVSLVMFASSYRKKQAKKISEQPSIFDENDAHDLYFQIKEMSENEKIHEKVLKAALLNRGAESVRRSLKLKELAPQINLLYKNGSIGEDYWKRFETEVKLIELEFKDTLQEAERLQPGWVQLFVMVCKEICFNQALSRRYQSILKRKEVCIKEWELKINNDGRLVN
B4: Sec72p (protein, UniProt P39742 1-193)
chain: MVTLEYNANSKLITASDAVVALSTETNIDQINVLTTSLIGETNPNFTPQPNEALSKMIKGLFESGMKNLQQKKLNEALKNVSLAIEMAQRKRAPWEAFAIQLPELHFMLRSKIDLCLILGKHLEALQDLDFLLGTGLIQPDVFVRKADCLLKLRQWEEARATCERGLALAPEDMKLRALLIETARNLAEYNGE

Target: T1, Sss1p tagged with the HA-epitope (S. cerevisiae (expressed in yeast strain KRY739)) (UniProt P35179)
T1 sequence: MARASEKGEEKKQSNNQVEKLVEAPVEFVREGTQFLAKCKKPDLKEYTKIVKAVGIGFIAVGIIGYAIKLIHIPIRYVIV
Experiment: affinity purification with mass spectrometry; microsomes (7,500 eq) of the SSS1-HA strain lysed in 2.5% digitonin buffer (50 mM HEPES-KOH pH 7.4, 400 mM potassium acetate, 8 mM magnesium acetate), ultracentrifuged to remove debris and ribosomes, diluted to 1% digitonin, bound to monoclonal anti-HA agarose overnight at 4°C, eluted with glycine-HCl pH 2.5; bands from SDS-PAGE identified by mass spectrometry; done with and without phosphatase inhibitors

Row | Binder | binding
1 | B1 | binds
2 | B2 | binds
3 | B3 | binds
4 | B4 | binds

Source: paper PMC3541991
